Data reported in the supplement of paper PMC10849652.
The other results are listed elsewhere or left out.

The chains behind the UniProt entries cited, without tags or fusion partners. Where a name states a change or a piece, a line headed by the entry shows the natural chain unless it says otherwise.
UniProt Q13015: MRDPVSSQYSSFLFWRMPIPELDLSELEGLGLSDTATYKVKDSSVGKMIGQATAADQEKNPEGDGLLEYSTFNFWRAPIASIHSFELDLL
UniProt Q9BU76: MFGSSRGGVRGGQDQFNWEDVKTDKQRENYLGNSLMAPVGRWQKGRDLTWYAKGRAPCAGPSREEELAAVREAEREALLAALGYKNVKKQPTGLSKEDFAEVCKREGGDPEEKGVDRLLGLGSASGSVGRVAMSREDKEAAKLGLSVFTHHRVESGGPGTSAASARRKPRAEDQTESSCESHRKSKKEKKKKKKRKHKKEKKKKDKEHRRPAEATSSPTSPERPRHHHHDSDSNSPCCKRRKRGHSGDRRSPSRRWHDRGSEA
UniProt Q13064: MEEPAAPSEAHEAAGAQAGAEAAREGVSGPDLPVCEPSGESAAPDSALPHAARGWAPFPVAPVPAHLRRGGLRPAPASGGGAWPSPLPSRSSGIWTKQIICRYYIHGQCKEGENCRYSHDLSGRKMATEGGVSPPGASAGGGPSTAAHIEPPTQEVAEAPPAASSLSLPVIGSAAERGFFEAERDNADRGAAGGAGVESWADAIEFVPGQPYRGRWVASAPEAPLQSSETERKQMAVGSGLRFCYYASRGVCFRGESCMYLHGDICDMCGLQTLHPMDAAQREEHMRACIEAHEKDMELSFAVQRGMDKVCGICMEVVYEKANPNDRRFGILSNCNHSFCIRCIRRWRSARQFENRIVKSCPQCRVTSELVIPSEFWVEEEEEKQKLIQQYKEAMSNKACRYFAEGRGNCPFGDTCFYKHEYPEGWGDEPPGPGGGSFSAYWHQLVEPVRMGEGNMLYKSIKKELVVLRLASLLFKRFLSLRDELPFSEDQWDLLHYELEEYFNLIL
UniProt Q9UJG1: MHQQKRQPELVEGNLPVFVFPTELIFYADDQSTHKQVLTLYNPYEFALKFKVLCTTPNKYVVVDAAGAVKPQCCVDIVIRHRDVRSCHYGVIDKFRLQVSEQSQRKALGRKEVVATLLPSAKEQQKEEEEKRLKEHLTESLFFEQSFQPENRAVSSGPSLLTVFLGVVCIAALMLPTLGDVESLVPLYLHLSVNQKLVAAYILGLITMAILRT
UniProt Q9NPA3, whole entry, looked up: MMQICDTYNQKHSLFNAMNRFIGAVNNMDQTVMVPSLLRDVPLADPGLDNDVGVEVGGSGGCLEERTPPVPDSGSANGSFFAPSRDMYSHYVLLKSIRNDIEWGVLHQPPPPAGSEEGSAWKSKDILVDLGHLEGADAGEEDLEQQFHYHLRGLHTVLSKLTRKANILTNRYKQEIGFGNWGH
UniProt P08473: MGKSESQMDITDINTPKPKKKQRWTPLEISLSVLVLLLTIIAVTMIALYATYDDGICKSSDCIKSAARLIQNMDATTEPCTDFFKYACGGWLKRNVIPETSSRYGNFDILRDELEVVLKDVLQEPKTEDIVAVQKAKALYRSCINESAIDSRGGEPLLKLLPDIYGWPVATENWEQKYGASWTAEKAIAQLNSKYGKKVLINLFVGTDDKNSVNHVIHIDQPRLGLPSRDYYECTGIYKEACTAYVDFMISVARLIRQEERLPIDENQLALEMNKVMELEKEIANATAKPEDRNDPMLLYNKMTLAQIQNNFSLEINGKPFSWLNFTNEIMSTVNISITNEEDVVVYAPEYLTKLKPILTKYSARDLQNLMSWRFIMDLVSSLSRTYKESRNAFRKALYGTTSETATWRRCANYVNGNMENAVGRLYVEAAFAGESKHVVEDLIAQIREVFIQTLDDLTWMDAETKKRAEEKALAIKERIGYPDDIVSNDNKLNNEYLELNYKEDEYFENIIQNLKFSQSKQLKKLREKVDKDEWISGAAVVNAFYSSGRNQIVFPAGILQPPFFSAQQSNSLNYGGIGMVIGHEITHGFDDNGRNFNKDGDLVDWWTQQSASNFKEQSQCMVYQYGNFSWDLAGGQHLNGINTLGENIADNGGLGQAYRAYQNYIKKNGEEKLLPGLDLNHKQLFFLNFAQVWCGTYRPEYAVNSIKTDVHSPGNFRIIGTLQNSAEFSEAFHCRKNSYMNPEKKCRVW
UniProt Q9UI43: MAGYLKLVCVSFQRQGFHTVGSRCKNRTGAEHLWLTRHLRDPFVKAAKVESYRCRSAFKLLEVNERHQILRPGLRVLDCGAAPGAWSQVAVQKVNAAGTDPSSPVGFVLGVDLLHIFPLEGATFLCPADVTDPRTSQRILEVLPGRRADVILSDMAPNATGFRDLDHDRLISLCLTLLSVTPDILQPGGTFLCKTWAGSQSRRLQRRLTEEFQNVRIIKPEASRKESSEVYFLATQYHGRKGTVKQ
UniProt Q8IVH4: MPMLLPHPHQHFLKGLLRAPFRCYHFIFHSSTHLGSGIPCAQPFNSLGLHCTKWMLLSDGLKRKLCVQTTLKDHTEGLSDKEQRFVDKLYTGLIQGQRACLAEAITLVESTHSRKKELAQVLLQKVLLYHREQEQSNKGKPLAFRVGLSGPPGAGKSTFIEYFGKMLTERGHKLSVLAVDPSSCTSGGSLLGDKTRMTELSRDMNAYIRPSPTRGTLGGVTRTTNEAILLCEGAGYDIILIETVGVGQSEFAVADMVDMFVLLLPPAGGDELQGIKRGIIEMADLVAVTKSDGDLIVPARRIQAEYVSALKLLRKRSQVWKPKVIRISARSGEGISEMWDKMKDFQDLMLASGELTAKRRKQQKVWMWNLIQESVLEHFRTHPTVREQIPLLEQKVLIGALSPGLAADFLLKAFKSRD
UniProt O96033: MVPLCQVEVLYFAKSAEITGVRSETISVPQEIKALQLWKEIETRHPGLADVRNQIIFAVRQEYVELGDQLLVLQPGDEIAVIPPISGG
UniProt O95297: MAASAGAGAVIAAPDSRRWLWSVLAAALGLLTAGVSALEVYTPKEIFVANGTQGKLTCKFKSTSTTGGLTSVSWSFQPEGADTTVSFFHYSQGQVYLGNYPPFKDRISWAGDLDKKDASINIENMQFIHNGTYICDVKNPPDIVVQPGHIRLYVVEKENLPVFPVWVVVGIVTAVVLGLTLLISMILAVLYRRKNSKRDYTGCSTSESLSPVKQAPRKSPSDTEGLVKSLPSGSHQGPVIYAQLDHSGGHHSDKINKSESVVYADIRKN
UniProt Q96BX8: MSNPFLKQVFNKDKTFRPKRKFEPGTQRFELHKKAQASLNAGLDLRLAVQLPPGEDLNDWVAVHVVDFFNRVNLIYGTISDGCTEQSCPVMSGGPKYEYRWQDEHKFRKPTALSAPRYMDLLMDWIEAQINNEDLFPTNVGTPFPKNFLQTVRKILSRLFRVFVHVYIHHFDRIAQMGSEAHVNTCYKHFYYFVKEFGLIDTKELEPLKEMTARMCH
UniProt Q8N3F8: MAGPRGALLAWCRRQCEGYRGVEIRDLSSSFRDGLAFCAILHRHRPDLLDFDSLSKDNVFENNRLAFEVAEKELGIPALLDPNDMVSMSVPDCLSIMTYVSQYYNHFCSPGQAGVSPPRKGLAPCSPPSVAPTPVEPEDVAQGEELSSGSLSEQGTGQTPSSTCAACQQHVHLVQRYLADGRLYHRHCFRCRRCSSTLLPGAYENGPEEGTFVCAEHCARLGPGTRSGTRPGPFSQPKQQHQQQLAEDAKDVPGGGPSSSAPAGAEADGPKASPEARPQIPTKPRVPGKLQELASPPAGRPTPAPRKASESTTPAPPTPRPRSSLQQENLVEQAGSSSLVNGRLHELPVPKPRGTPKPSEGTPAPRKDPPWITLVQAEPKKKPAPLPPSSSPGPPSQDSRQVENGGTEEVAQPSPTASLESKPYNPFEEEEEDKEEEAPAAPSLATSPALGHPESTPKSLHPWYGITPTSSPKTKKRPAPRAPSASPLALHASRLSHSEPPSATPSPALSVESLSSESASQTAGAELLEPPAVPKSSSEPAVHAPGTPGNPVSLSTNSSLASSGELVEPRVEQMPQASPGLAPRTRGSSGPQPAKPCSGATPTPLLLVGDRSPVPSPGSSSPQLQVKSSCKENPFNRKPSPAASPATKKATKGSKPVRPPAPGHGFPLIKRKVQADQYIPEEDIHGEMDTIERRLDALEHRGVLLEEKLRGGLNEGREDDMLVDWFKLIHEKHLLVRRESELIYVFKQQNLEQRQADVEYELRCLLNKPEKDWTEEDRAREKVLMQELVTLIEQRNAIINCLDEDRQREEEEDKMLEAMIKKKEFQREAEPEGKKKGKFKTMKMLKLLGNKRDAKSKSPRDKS
UniProt Q9Y5U8: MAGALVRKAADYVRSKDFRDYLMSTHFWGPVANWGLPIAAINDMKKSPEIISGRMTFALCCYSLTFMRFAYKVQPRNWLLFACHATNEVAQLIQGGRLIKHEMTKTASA
UniProt O94851, whole entry, looked up: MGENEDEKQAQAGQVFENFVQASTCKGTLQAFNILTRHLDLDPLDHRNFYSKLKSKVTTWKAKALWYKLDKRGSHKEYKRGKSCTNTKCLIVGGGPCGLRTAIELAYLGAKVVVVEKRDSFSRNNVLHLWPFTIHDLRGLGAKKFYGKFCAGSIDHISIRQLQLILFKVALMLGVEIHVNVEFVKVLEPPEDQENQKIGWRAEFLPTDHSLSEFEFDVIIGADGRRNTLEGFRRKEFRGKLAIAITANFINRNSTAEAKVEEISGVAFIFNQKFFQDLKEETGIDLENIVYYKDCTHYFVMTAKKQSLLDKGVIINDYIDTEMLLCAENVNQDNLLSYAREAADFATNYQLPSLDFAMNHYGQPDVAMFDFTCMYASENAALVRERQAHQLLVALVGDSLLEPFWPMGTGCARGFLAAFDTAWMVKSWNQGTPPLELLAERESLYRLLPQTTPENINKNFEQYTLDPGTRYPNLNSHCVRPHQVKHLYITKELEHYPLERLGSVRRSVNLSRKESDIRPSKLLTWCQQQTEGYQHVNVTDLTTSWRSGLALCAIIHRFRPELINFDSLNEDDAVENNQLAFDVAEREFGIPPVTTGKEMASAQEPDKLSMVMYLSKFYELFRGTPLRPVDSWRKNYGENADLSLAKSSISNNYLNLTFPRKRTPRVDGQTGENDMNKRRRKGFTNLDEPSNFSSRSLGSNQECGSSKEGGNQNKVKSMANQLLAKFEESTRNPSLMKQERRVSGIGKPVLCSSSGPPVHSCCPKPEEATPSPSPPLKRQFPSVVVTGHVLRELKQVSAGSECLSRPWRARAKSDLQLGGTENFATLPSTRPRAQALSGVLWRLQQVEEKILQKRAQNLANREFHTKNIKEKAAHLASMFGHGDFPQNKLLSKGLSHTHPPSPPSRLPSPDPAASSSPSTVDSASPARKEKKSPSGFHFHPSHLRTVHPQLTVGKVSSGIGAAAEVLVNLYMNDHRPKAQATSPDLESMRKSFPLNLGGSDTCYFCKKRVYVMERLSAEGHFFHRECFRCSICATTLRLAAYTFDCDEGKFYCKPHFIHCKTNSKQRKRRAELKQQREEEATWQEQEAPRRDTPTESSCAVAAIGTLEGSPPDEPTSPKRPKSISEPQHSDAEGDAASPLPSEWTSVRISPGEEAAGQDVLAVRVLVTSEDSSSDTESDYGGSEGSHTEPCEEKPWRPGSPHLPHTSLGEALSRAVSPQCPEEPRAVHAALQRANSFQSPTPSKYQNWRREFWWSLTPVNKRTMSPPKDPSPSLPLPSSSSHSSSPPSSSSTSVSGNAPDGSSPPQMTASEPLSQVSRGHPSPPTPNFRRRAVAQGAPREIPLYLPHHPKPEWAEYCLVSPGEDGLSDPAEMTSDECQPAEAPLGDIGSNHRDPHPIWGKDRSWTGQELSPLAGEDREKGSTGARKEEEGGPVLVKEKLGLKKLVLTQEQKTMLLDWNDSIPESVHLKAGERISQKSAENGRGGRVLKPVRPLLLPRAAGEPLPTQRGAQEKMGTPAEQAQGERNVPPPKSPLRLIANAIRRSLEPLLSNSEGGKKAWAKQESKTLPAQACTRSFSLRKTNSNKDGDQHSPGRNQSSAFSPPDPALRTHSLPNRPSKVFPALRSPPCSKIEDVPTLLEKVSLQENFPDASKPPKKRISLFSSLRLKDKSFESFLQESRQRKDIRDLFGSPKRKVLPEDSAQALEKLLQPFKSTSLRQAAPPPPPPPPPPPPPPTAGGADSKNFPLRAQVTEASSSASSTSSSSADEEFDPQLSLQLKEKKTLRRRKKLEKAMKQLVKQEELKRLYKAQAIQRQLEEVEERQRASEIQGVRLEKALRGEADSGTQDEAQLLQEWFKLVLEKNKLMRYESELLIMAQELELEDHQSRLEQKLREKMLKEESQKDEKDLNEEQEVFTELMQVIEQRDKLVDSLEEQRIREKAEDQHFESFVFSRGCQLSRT
UniProt Q9H3L0: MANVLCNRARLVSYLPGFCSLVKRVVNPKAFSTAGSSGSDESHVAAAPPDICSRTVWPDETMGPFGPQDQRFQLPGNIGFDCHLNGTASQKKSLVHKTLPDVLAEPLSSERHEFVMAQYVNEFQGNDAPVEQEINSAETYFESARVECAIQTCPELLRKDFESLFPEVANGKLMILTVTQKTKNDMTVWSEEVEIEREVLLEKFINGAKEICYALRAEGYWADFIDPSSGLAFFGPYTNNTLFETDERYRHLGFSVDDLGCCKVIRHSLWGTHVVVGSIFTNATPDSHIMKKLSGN

Legend:
Test in all cases: log2 fold change, soluble protein after heating vs DMSO (PISA); higher = thermal stabilisation; K562 cells, 10 uM, 30 min; active = over 0.2 and 3.5 SD of the protein, either way, in both replicates (recomputed)
erlotinib = compound: C#Cc1cccc(Nc2ncnc3cc(OCCOC)c(OCCOC)cc23)c1 [erlotinib]
Outline: (§1)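 Soluble protein was quantified by TMTpro 16plex LC-MS/MS after channel sums were equalised. It was obtained as the supernatant after 21,000xg for 90 min from pooled aliquots of K562 cells (2×10^6 cells/mL, 10 μM compound, 30 min) heated for 3 min across 48°C-58°C and extracted in PBS with 0.5% NP-40 at 4°C. Thermal stability values are relative to control samples and come from duplicates. They are given as log2 fold changes.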

[1] = compound: C1=CC(=C(C=C1Cl)C2=NC3=NC=CN=C3C(=N2)NC4=CC=NC=C4)F
Outline: as §1

[2] = compound: C1=CC(=CC=C1C2=NC3=C(N2)C=C(C=C3)C(=O)N)OC4=CC=C(C=C4)Cl
Outline: as §1

[3] = compound: C1=CC2=NC=CN=C2C=C1/C=C/3\C(=O)NC(=O)S3
Outline: as §1

[4] = compound: C1=CC=C(C=C1)C2=NC(=C(N2)C3=CC=NC=C3)C4=CC(=C(C=C4)Cl)O
Outline: as §1

[5] = compound: C1CCN(C1)C(=O)NC2=CC=CC(=C2)NC3=NC=C(C(=N3)NCCC4=CN=CN4)Br
Outline: as §1

[6] = compound: C1CN(CCC1(CC2=CC=C(C=C2)Cl)N)C3=NC=NC4=C3C=CN4
Outline: as §1

[7] = compound: C/C(=N\NC(=O)C1=CC(=CC=C1)S(=O)(=O)N2CCOCC2)/C3=C(C=CC(=C3)Cl)O
Outline: as §1

[8] = compound: C1=CC2=C(C=CC(=C2)/C=C\3/C(=O)NC(=NCC4=CC=CS4)S3)N=C1
Outline: as §1

[9] = compound: C1=CC=C2C(=C1)C3=NNC4=CC=CC(=C43)C2=O
Outline: as §1

Measured: log2 fold change

MLLT11 (UniProt Q13015)
inactive: erlotinib 0.018 | [1] 0.103 | [2] -0.063 | [3] 0.165 | [4] -0.071 | [5] -0.123 | [6] -0.3

MMTAG2 (UniProt Q9BU76)
inactive: erlotinib -0.031 | [7] -0.161 | [2] 0.028 | [8] -0.155 | [3] -0.181 | [4] -0.093 | [9] -0.052 | [5] -0.135 | [6] -0.059

MRPL18 (UniProt Q9H0U6)
inactive: erlotinib -0.12 | [1] -0.104 | [2] 0.093 | [3] -0.035 | [4] -0.108 | [5] -0.043 | [6] -0.161

MKRN3 (UniProt Q13064)
inactive: erlotinib -0.08 | [7] -0.239 | [1] 0.011 | [2] -0.087 | [8] 0.378 | [4] -0.183 | [9] 0.109 | [5] 0.045 | [6] 0.118

MIER2 (UniProt Q8N344)
inactive: erlotinib 0.466 | [7] 0.017 | [1] 0 | [2] 0.068 | [8] -0.068 | [9] -0.112

Quoted from the listing (2 entries):
MLLT11 (UniProt Q13015)
inactive: erlotinib 0.018 | [1] 0.103 | [2] -0.063 | [3] 0.165 | [4] -0.071 | [5] -0.123 | [6] -0.3

MMTAG2 (UniProt Q9BU76)
inactive: erlotinib -0.031 | [7] -0.161 | [2] 0.028 | [8] -0.155 | [3] -0.181 | [4] -0.093 | [9] -0.052 | [5] -0.135 | [6] -0.059

Additional entries

MOSPD1 isoform 3 (UniProt Q9UJG1)
inactive: erlotinib -0.014 | [2] 0.153

MOB2 isoform 3 (UniProt Q70IA6)
inactive: erlotinib 0.029 | [1] -0.077 | [2] -0.001 | [3] 0.06 | [4] 0.025 | [5] 0.135 | [6] -0.22

MID1IP1 (UniProt Q9NPA3)
inactive: erlotinib -0.055 | [1] 0.006 | [2] 0.049 | [3] -0.048 | [4] -0.076 | [5] -0.08 | [6] -0.06

MME (UniProt P08473)
inactive: erlotinib 0.081 | [2] -0.063 | [3] 0.004

MRM2 (UniProt Q9UI43)
inactive: erlotinib 0.023 | [7] 0.182 | [2] 0.031 | [8] 0.185 | [9] 0.121 | [5] -0.017 | [6] -0.002

MMAA (UniProt Q8IVH4)
inactive: erlotinib 0.096 | [7] -0.065 | [1] -0.088 | [2] -0.048 | [8] 0.056 | [9] 0.132

MON1A (UniProt Q86VX9)
inactive: erlotinib -0.119 | [1] 0.022 | [2] 0 | [3] -0.262 | [4] -0.017 | [5] 0 | [6] 0.135

MOCS2 (UniProt O96033)
inactive: erlotinib 0.118 | [7] -0.014 | [2] 0.149 | [8] -0.062 | [9] -0.131 | [5] -0.18 | [6] 0.022

MPZL1 isoform 3 (UniProt O95297)
inactive: [7] 0.123 | [8] -0.051 | [9] 0.073 | [5] 0.147 | [6] 0.019

MRAS (UniProt O14807)
inactive: erlotinib 0.047 | [2] 0.123 | [3] -0.03

MKRN1 (UniProt Q9UHC7)
inactive: erlotinib 0.012 | [1] -0.131 | [2] 0.044 | [3] 0.063 | [4] -0.179 | [5] 0.08 | [6] -0.278

MINDY4 (UniProt Q4G0A6)
inactive: [4] 0.007

MLKL (UniProt Q8NB16)
inactive: erlotinib 0.238 | [1] 0.144 | [2] 0.014 | [5] -0.05 | [6] 0.03

MR1 (UniProt Q95460)
inactive: erlotinib -0.1 | [1] -0.005 | [2] 0.123

MOB3A (UniProt Q96BX8)
inactive: erlotinib -0.007 | [7] 0.022 | [2] -0.096 | [8] -0.033 | [3] 0.037 | [4] -0.014 | [9] 0.052 | [5] -0.029 | [6] 0.011

MICA (UniProt Q29983)
inactive: erlotinib -0.027 | [7] -0.007 | [2] -0.049 | [8] 0.211 | [3] -0.049 | [4] -0.225 | [9] -0.004 | [5] -0.012 | [6] 0.055

MPHOSPH8 isoform 2 (UniProt Q99549)
inactive: [7] 0.033 | [1] 0.24 | [8] -0.044 | [4] -0.055 | [9] -0.086 | [5] -0.02 | [6] -0.065

MITF (UniProt O75030)
inactive: erlotinib -0.021 | [7] -0.015 | [2] 0.041 | [8] -0.011 | [9] 0.047

MICALL1 (UniProt Q8N3F8)
inactive: erlotinib 0.131 | [7] -0.012 | [1] -0.067 | [2] -0.103 | [8] 0.04 | [4] -0.205 | [9] -0.028 | [5] -0.01 | [6] 0.066

MPC1 (UniProt Q9Y5U8)
inactive: erlotinib 0.019 | [7] 0.155 | [2] 0.059 | [8] -0.071 | [3] 0.044 | [4] -0.026 | [9] 0.014 | [5] -0.033 | [6] 0.083

MOB3B (UniProt Q86TA1)
inactive: erlotinib -0.305 | [7] 0.302 | [2] -0.271 | [8] 0.24 | [3] -0.056 | [9] -0.092 | [5] -0.186 | [6] 0.059

MINDY2 (UniProt Q8NBR6)
inactive: erlotinib -0.184 | [1] 0.231 | [2] 0.092 | [5] 0.01 | [6] -0.014

MNT (UniProt Q99583)
inactive: [7] 0.008 | [1] 0.068 | [8] 0.001 | [3] -0.092 | [4] 0.06 | [9] -0.071 | [5] 0.146 | [6] -0.136

MLST8 (UniProt Q9BVC4)
inactive: erlotinib -0.021 | [7] 0.049 | [1] -0.004 | [2] 0.102 | [8] 0.116 | [3] -0.026 | [9] -0.111 | [5] -0.035 | [6] -0.105

MRPL42 (UniProt Q9Y6G3)
inactive: [7] 0.004 | [1] -0.079 | [8] -0.176 | [3] 0.017 | [4] -0.017 | [9] -0.062 | [5] 0.062 | [6] -0.074

MICAL2 (UniProt O94851)
inactive: [7] -0.099 | [1] 0.05 | [8] 0.191 | [3] 0.08 | [4] -0.047 | [9] 0.036 | [5] -0.6 | [6] 0.106

MMADHC (UniProt Q9H3L0)
inactive: erlotinib 0.088 | [7] -0.002 | [2] -0.034 | [8] -0.031 | [3] -0.105 | [4] -0.039 | [9] 0.073 | [5] 0.014 | [6] 0.083

MICAL1 isoform 4 (UniProt Q8TDZ2)
inactive: erlotinib 0.07 | [7] 0.164 | [1] -0.071 | [2] 0.07 | [8] 0.415 | [4] 0.038 | [9] -0.108
